Data published in PMC8384837.
Positions count from the first letter of the chain named. The list shows a part of the results. For some assays here: At the low end of the ranking, values are background and their order means little.

What was measured:
Conditions in all cases: yeast three-hybrid, YBZ-1, SC-Leu-His + 0.5 mM 3-AT, 4 days
[1] = target: T1, PUM1 PUF domain R5-NGC C1007N + R1008G + Q1011C (UniProt Q14671)
T1 sequence: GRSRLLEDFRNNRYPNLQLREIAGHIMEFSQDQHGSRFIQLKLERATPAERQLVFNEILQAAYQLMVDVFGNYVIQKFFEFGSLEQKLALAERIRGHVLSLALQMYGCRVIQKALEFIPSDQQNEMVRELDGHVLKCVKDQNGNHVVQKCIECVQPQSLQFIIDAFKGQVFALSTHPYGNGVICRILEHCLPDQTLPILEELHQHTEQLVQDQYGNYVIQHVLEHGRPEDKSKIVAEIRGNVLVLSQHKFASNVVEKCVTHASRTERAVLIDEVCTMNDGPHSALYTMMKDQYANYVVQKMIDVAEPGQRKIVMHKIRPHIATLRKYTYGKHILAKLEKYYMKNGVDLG

[2] = target: T2, PUM1 PUF domain R5-NGR C1007N + R1008G + Q1011R (Homo sapiens) (UniProt Q14671)
T2 sequence: T1 sequence with C184R

[3] = target: T3, PUM1 PUF domain R5-NGS C1007N + R1008G + Q1011S (Homo sapiens) (UniProt Q14671)
T3 sequence: T1 sequence with C184S

[4] = target: T4, PUM1 PUF domain R5-NLL C1007N + R1008L + Q1011L (UniProt Q14671)
T4 sequence: T1 sequence with G181L, C184L

[5] = target: T5, PUM1 PUF domain R5-NPR C1007N + R1008P + Q1011R (UniProt Q14671)
T5 sequence: T1 sequence with G181P, C184R

[6] = target: T6, PUM1 PUF domain R5-NSD C1007N + R1008S + Q1011D (Homo sapiens) (UniProt Q14671)
T6 sequence: T1 sequence with G181S, C184D

[7] = target: T7, PUM1 PUF domain R5-NSR C1007N + R1008S + Q1011R (Homo sapiens) (UniProt Q14671)
T7 sequence: T1 sequence with G181S, C184R

[8] = target: T8, PUM1 PUF domain R5-NSV C1007N + R1008S + Q1011V (UniProt Q14671)
T8 sequence: T1 sequence with G181S, C184V

[9] = target: T9, PUM1 PUF domain R5-NTR C1007N + R1008T + Q1011R (UniProt Q14671)
T9 sequence: T1 sequence with G181T, C184R

[10] = target: T10, PUM1 PUF domain R5-NVR C1007N + R1008V + Q1011R (UniProt Q14671)
T10 sequence: T1 sequence with G181V, C184R

[11] = target: T11, PUM1 PUF domain R5-QAR C1007Q + R1008A + Q1011R (Homo sapiens) (UniProt Q14671)
T11 sequence: T1 sequence with N180Q, G181A, C184R

[12] = target: T12, PUM1 PUF domain R5-QCR C1007Q + R1008C + Q1011R (Homo sapiens) (UniProt Q14671)
T12 sequence: T1 sequence with N180Q, G181C, C184R

[13] = target: T13, PUM1 PUF domain R5-QGC C1007Q + R1008G + Q1011C (UniProt Q14671)
T13 sequence: T1 sequence with N180Q

[14] = target: T14, PUM1 PUF domain R5-QGR C1007Q + R1008G + Q1011R (UniProt Q14671)
T14 sequence: T1 sequence with N180Q, C184R

[15] = target: T15, PUM1 PUF domain R5-QIR C1007Q + R1008I + Q1011R (UniProt Q14671)
T15 sequence: T1 sequence with N180Q, G181I, C184R

[16] = target: T16, PUM1 PUF domain R5-QKA C1007Q + R1008K + Q1011A (UniProt Q14671)
T16 sequence: T1 sequence with N180Q, G181K, C184A

[17] = target: T17, PUM1 PUF domain R5-QKC C1007Q + R1008K + Q1011C (UniProt Q14671)
T17 sequence: T1 sequence with N180Q, G181K

[18] = target: T18, PUM1 PUF domain R5-QKN C1007Q + R1008K + Q1011N (UniProt Q14671)
T18 sequence: T1 sequence with N180Q, G181K, C184N

[19] = target: T19, PUM1 PUF domain R5-QKR C1007Q + R1008K + Q1011R (UniProt Q14671)
T19 sequence: T1 sequence with N180Q, G181K, C184R

[20] = target: T20, PUM1 PUF domain R5-PHQ R6-SWD C1007P + R1008H + N1043S + Y1044W + Q1047D (Homo sapiens) (UniProt Q14671)
T20 sequence: T1 sequence with N180P, G181H, C184Q, N216S, Y217W, Q220D

Sequence | binding signal (log2 enrichment (interaction score)) [1] | binding signal (log2 enrichment (interaction score)) [2] | binding signal (log2 enrichment (interaction score)) [3] | binding signal (log2 enrichment (interaction score)) [4] | binding signal (log2 enrichment (interaction score)) [5] | binding signal (log2 enrichment (interaction score)) [6] | binding signal (log2 enrichment (interaction score)) [7] | binding signal (log2 enrichment (interaction score)) [8] | binding signal (log2 enrichment (interaction score)) [9] | binding signal (log2 enrichment (interaction score)) [10] | binding signal (log2 enrichment (interaction score)) [11] | binding signal (log2 enrichment (interaction score)) [12] | binding signal (log2 enrichment (interaction score)) [13] | binding signal (log2 enrichment (interaction score)) [14] | binding signal (log2 enrichment (interaction score)) [15] | binding signal (log2 enrichment (interaction score)) [16] | binding signal (log2 enrichment (interaction score)) [17] | binding signal (log2 enrichment (interaction score)) [18] | binding signal (log2 enrichment (interaction score)) [19] | binding signal (log2 enrichment (interaction score)) [20]
GGCUAGAACUAGUGGAUCCCCCGGCGCCCGGCGGCUCGAGCCCGGGUAAGUGUAAAUAGUCUGCAUGCCGCCGGGCGCCAUGCCUGCAGGUCGACUCUAGAAAACAUG | < -5.29 | -1.74 | -0.7 | -2.31 | < -5.87 | -2.08 | -0.02 | < -6.52 | -4.16 | < -6.54 | -0.41 | -0.65 | < -6.15 | -2.5 | < -6.7 | < -7.7 | < -6.15 | < -5.58 | < -7.6 | 
GGCUAGAACUAGUGGAUCCCCCGGCGCCCGGCGGCUCGAGCCCGGGUAAGUGGAAAUAGUCUGCAUGCCGCCGGGCGCCAUGCCUGCAGGUCGACUCUAGAAAACAUG |  |  |  |  |  |  |  |  |  |  |  |  |  |  |  |  |  |  |  | 6.12
